Results from PubChem BioAssay AID504834 (National Center for Advancing Translational Sciences (NCATS), 2011).
Where “and” joins values, the source holds several entries; their conditions need not be identical. Equal entries are not always repeated. The whole screen tested about 320,000 compounds, of which about 22,000 (6.9%) were called active. The inconclusive results got no clear call from the source; some entries with a clear call stand among them for comparison. Calls come from the whole dose curve; as a rule, active = well fitted inhibition curve with a large enough effect; inconclusive = small, poorly fitted or top-dose-only effect, or another doubt; inactive = no such curve, though single readings can be large or run the other way. Where the call is inconclusive, the potency comes from a doubtful curve fit.

Experiment: Primary qHTS for delayed death inhibitors of the malarial parasite plastid, 96 hour incubation
Settings: P. falciparum luciferase reporter growth; series mostly up to 28.7 µM
Outline: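 Infected RBCs, 2% Hct / 0.05% parasitemia final; luciferase-reporter P. falciparum; cpd 96 h, 37 C, 5% CO2; luciferase detection reagent; luminescence.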
% is set by controls: 0 for no effect and ±100 for the full control effect; potency is the fitted concentration of half-maximal effect.

Q: Which Potency does the source give for `CSCCC(=O)NC1CCCN(CCc2ccccc2)C1` (stereo not given) here?
A: inconclusive: 10.4 µM [inhibitor, single point]

Q: Which Potency does the source give for `CCOc1ccc(C(=O)N2CCCC2)cc1` here?
A: inconclusive: 18.5 µM [inhibitor, single point]

Q: For `COc1ccc(CCNC(=O)COC(=O)C2CCCCC2)cc1`, which Potency is on record?
A: inactive

Q: With `O=C(C1CC1)N1CCc2cc(S(=O)(=O)N3CCCc4ccccc43)ccc21` as the compound, how does the Potency read?
A: inconclusive: 4.15 µM [inhibitor, partial curve]

Q: For `COc1ccc(Cl)cc1NC(=O)C1CC(c2c(F)cccc2Cl)=NO1` (stereo not given), which Potency is on record?
A: inactive

Q: For `CC(NS(=O)(=O)OCC(Cl)(Cl)Cl)c1ccc(C(C)(C)C)cc1` (stereo not given), which Potency is on record?
A: inconclusive: 14.7 µM [inhibitor, partial curve, poor fit]

Q: Which Potency does the source give for `Cc1cccc(NC(=O)c2ccc(OCC3CCCO3)cc2)c1C` (stereo not given) here?
A: inactive

Q: With `O=[N+]([O-])c1ccc2[nH]cc(S(=O)(=O)N3CCN(c4cccc(Cl)c4)CC3)c2c1` as the compound, how does the Potency read?
A: inconclusive: 16.5 µM [inhibitor, single point]

Q: For `COc1ccc(-c2cccc([C@H]3[C@@H]4C=CCC[C@@]4(C)C(=O)N3Cc3ccccc3)c2)cc1`, which Potency is on record?
A: inconclusive: 8.28 µM [inhibitor, partial curve]

Q: Which Potency does the source give for `C/C(=N\NC(=O)c1cc(C2CC2)nc2ccccc12)c1ccc(O)cc1O` here?
A: inactive

Q: For `O=C(CCC(=O)N1CCOc2ccc(Cl)cc21)NCCCN1CCOCC1`, which Potency is on record?
A: inactive

Q: For `CCCN(CC(=O)Nc1ccccc1C)C(=O)c1ccc(S(=O)(=O)N2CCCCCC2)cc1`, which Potency is on record?
A: inconclusive: 3.7 µM [inhibitor, full curve, poor fit]

Q: With `COc1cc(SC)ccc1C(=O)Nc1ccon1` as the compound, how does the Potency read?
A: inconclusive: 0.37 µM [inhibitor, partial curve, poor fit]

Q: Which Potency does the source give for `CC(=O)c1cccc(NC(=O)N2CCCC(C(=O)c3cc(F)ccc3F)C2)c1` (stereo not given) here?
A: inactive

Q: Which Potency does the source give for `CCCN(CCC)CC(O)Cn1cc(/C=C/C(=O)c2cccs2)c2ccccc21` (stereo not given) here?
A: inactive

Q: With `O=C(c1ccc(Cl)cc1)C1CCCN(Cc2cccc3ncccc23)C1` (stereo not given) as the compound, how does the Potency read?
A: inconclusive: 18.5 µM [inhibitor, single point]

Q: For `O=C1C2CCCN2C(c2ccccc2)N1c1ccc(F)cc1` (stereo not given), which Potency is on record?
A: inconclusive: 10.4 µM [inhibitor, single point]

Q: For `COc1cc(/C=C2/NC(=O)N(Cc3ccccc3F)C2=O)cc(OC)c1OC`, which Potency is on record?
A: inactive

Q: With `CCOC(=O)CN1C(=O)C(C)(C)Oc2ccc(C(=O)Nc3ccccc3)cc21` as the compound, how does the Potency read?
A: inconclusive: 13.1 µM [inhibitor, single point]

Q: For `CNC(=O)/C=C1\NC(C)(C)Cc2c1ccc1ccccc21`, which Potency is on record?
A: inconclusive: 4.15 µM [inhibitor, partial curve]

Q: Which Potency does the source give for `NC1=NN(c2cccc(C(=O)O)c2)C(=O)C1` here?
A: active: 13.1 µM

Q: For `COc1ccc(-c2[nH]ncc2CN2CCSCC2)c(OC)c1`, which Potency is on record?
A: active: 11.7 µM

Q: With `c1ccc(-c2nnc3n2N=C(c2ccc4c(c2)OCO4)CS3)nc1` as the compound, how does the Potency read?
A: inconclusive: 11.7 µM [inhibitor, partial curve, poor fit]

Q: Which Potency does the source give for `CCc1nc(NCCc2ccccn2)c2nnn(Cc3ccccc3F)c2n1` here?
A: inconclusive: 2.08 µM [inhibitor, partial curve, poor fit]

Q: With `Cc1cc2ccccn2c1C(=O)c1ccc(NN)c([N+](=O)[O-])c1` as the compound, how does the Potency read?
A: inconclusive: 2.33 µM [inhibitor, full curve, poor fit]

Q: For `Cc1nc2ccccc2n1S(=O)(=O)c1ccc(S(=O)(=O)N2CCCCCC2)cc1`, which Potency is on record?
A: inconclusive: 9.28 µM [inhibitor, single point]

Q: With `CC(C)COc1ccc(C(=O)Nc2cc(S(=O)(=O)N3CCOCC3)ccc2N2CCCC2)cc1` as the compound, how does the Potency read?
A: inconclusive: 14.7 µM [inhibitor, partial curve, poor fit]

Q: For `COc1ccc(NS(=O)(=O)c2cccc(C(=O)N/N=C/c3cn(-c4ccccc4)nc3-c3ccccc3)c2)cc1`, which Potency is on record?
A: inactive

Q: For `CCCC(=O)N1CCN(c2ccc(NC(=O)C(C)(C)C)cc2Cl)CC1`, which Potency is on record?
A: inconclusive: 4.15 µM [inhibitor, full curve]

Q: For `COc1cc2c(cc1NC(=O)c1cccc(F)c1)CCCC2`, which Potency is on record?
A: inactive

Q: With `COc1cc(NS(=O)(=O)c2ccc(NC(=O)c3ccc(S(=O)(=O)N4CCCCC4)cc3)cc2)ncn1` as the compound, how does the Potency read?
A: inconclusive: 18.5 µM [inhibitor, single point]

Q: Which Potency does the source give for `N#CC(C#N)=c1ccc2c(c1)NC1(CCCCC1)N=2` here?
A: inconclusive: 18.5 µM [inhibitor, partial curve, poor fit]

Q: Which Potency does the source give for `CC(C)NC[C@@H](O)COc1cccc2ccccc12` here?
A: inconclusive: 15.1 µM [inhibitor, single point] and inconclusive: 10.4 µM [inhibitor, single point]

Q: For `C/C(CS(=O)(=O)c1ccc(Cl)cc1)=N/NC(N)=S`, which Potency is on record?
A: inactive

Q: With `Fc1cccc(CSc2ccc3nnc(-c4ccccn4)n3n2)c1` as the compound, how does the Potency read?
A: active: 1.85 µM

Q: For `Cc1c(C(N)=O)sc2nc(-c3ccccc3)cn12`, which Potency is on record?
A: active: 10.4 µM

Q: For `CCc1c(C)c(C#N)c2nc3ccccc3n2c1NCCN(C)C`, which Potency is on record?
A: inactive

Q: For `Cc1ccc(OCc2ccc(C#N)cc2)c(C(=O)c2cc(C#N)c(=O)n(C3CC3)c2)c1`, which Potency is on record?
A: inconclusive: 5.86 µM [inhibitor, partial curve]

Q: For `C/C(CCc1ccc2c(c1)OCO2)=N\NC(=S)NC(C)C`, which Potency is on record?
A: inconclusive: 18.5 µM [inhibitor, single point]

Q: With `CN(C)C(=S)NC1(C)CCS(=O)(=O)C1` (stereo not given) as the compound, how does the Potency read?
A: inconclusive: 4.15 µM [inhibitor, partial curve, poor fit]

Q: Which Potency does the source give for `CC(C)N1CCC2(CC1)NC(CO)(CO)CO2` here?
A: inconclusive: 18.5 µM [inhibitor, single point]

Q: With `COc1ccccc1/C(C)=N/NC(=S)NCc1ccccc1` as the compound, how does the Potency read?
A: inconclusive: 2.62 µM [inhibitor, single point]

Q: With `CC(C)(C)C(=O)Nc1sc(-c2ccccc2)cc1C(=O)O` as the compound, how does the Potency read?
A: inactive

Q: With `O=C(c1ccc(S(=O)(=O)N2CCCCCC2)cc1)N(c1ccccn1)C1CCCCC1` as the compound, how does the Potency read?
A: inconclusive: 14.7 µM [inhibitor, partial curve]

Q: For `COc1ccc(NC(=O)C(CC(=O)O)Cc2ccc(C)cc2)cc1` (stereo not given), which Potency is on record?
A: inconclusive: 11.7 µM [inhibitor, single point]

Q: For `Cc1cc(C)nc(NS(=O)(=O)c2ccc(NC(=O)CN3C(=O)C4CC=CCC4C3=O)cc2)n1` (stereo not given), which Potency is on record?
A: inactive

Q: Which Potency does the source give for `Cc1nn(-c2ccccc2)c(C)c1C(=O)OCc1ccc(C#N)cc1` here?
A: inactive

Q: With `O=C(/C=C\c1cccs1)N1CCN(Cc2ccc3c(c2)OCO3)CC1` as the compound, how does the Potency read?
A: inactive

Q: For `COC(=O)NC1CCS(=O)(=O)C1` (stereo not given), which Potency is on record?
A: inconclusive: 9.28 µM [inhibitor, single point]

Q: With `O=C(NCc1ccco1)C1(S(=O)(=O)c2ccc(Cl)cc2)CC1` as the compound, how does the Potency read?
A: inconclusive: 3.29 µM [inhibitor, partial curve]

Q: For `O=C(COc1ccc2c3c(c(=O)oc2c1)CCCC3)N1CCN(c2ccccc2)CC1`, which Potency is on record?
A: inconclusive: 18.5 µM [inhibitor, single point]

Q: With `CCOC(=O)c1nc(C)sc1-c1ccnn1S(=O)(=O)c1ccccc1C(F)(F)F` as the compound, how does the Potency read?
A: inactive

Q: With `O=C(Nc1cc(Cl)cc(Cl)c1)C1CCC(=O)N1Cc1ccccc1Cl` (stereo not given) as the compound, how does the Potency read?
A: inconclusive: 8.28 µM [inhibitor, partial curve, poor fit]

Q: For `CCOc1ccc(C2/C(=C(\O)c3ccc4c(c3)OCCO4)C(=O)C(=O)N2CCN2CCOCC2)cc1OC` (stereo not given), which Potency is on record?
A: inconclusive: 18.5 µM [inhibitor, single point]

Q: Which Potency does the source give for `CC(C)Cc1nnc(NC(=O)C2CCN(C(=O)c3ccc(Cl)cc3)CC2)s1` here?
A: inconclusive: 18.5 µM [inhibitor, single point]

Q: Which Potency does the source give for `S=C(NCC1CCCCC1)Nc1ccc(Oc2ccccc2)cc1` here?
A: inactive

Q: Which Potency does the source give for `O=C1c2ccccc2C2(c3cc(C(F)(F)F)cc(C(F)(F)F)c3)NCCN12` (stereo not given) here?
A: inconclusive: 10.4 µM [inhibitor, partial curve]

Q: Which Potency does the source give for `COc1ccc(-c2csc3ncnc(N4CCN(S(=O)(=O)c5ccccc5C#N)CC4)c23)cc1` here?
A: inconclusive: 0.0294 µM [inhibitor, full curve, poor fit]

Q: For `CCc1nc2n(n1)C(O)c1cc([N+](=O)[O-])ccc1S2` (stereo not given), which Potency is on record?
A: inactive

Q: For `CC(NC(=O)Cc1ccc(NS(=O)(=O)c2cccc(C(F)(F)F)c2)cc1)c1ccccn1` (stereo not given), which Potency is on record?
A: inconclusive: 8.28 µM [inhibitor, partial curve]

Q: With `CCc1c(C2(O)CCCCC2)[nH]c2ncccc12` as the compound, how does the Potency read?
A: inconclusive: 10.4 µM [inhibitor, single point]

Q: For `O=C(CSc1ccc(Cl)cc1)Nc1cccc(-c2nc3ccccc3[nH]2)c1`, which Potency is on record?
A: inconclusive: 10.4 µM [inhibitor, single point]

Q: For `c1ccc(C[n+]2ccccc2)cc1`, which Potency is on record?
A: inconclusive: 11.7 µM [inhibitor, single point]

Q: Which Potency does the source give for `CCn1c(CC(=O)Nc2ccc(F)cc2)nnc1SCC(=O)NC1CCCC1` here?
A: inactive

Q: With `CCOC(=O)c1sc(NC(=O)c2cccnc2)nc1C` as the compound, how does the Potency read?
A: inactive

Q: Which Potency does the source give for `COc1ccccc1N(CC(=O)NCCSCc1ccc(Cl)cc1)S(C)(=O)=O` here?
A: inconclusive: 1.47 µM [inhibitor, full curve]

Q: With `CCOc1c(Cl)cc(CNCC(C)C)cc1OC` as the compound, how does the Potency read?
A: inactive

Q: Which activity change, negative = inhibition does the source give for `N#Cc1ccccc1NC(=O)CSc1nnc(-c2ccccc2)n1-c1ccccc1` here?
A: inactive: -6.1% [at 5.75 µM]

Q: For `C=CCNC(=O)N1CCC(c2nc3ccccc3s2)CC1`, which Potency is on record?
A: inconclusive: 0.738 µM [inhibitor, full curve, poor fit]

Q: For `COc1ccc(-c2cc(C(=O)N3CC4(C)CC3CC(C)(C)C4)no2)cc1OC` (stereo not given), which Potency is on record?
A: inconclusive: 18.5 µM [inhibitor, single point]
